# Measured values: PubChem BioAssay AID1347426 (Functional Genomics Laboratory (NCATS/FGL), 2020)
# About 1,400 (4.5%) of roughly 31,000 sequences were called active.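 How the source made its calls: active means median seed-adjusted z-score above 1 or below -1; inactive means the rest.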 The list shows a part of the results.
# Test: Novel Modifiers of Survival Motor Neuron (SMN) Protein: Gene Identification via Genome-wide siRNA Screen;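 further: luminescence tracks full-length SMN protein made from the SMN2 reporter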
# Settings: HEK293T SMN2-luciferase reporter, siRNA knockdown, 72 h; actives lie on both sides
# Procedure, shortened: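 HEK293T cells stably carrying an SMN2 promoter/splicing cassette–luciferase reporter were reverse-transfected with 1 pmol siRNA per well (druggable-genome library, 3 siRNAs per gene) and grown 72 h at 37 °C. Luminescence, normalized to negative-control siRNA and log10-transformed, was scored as MAD.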
row,Sequence,median seed-adjusted z-score
1,CGUCUAUGCAUAUCCUAGATT against RBM15B,inactive: -0.183
2,CACGUACUCUGGAUGCACATT against MED25,inactive: -0.589
3,AGUGCACAAAUGAUAACAATT against MGAT1,inactive: 0.138
4,GCUGAUGCAUUGCUCAUUATT against CCT6A,inactive: -0.286
5,GCUAGAGAUUGACCAGAAATT against NUDC,inactive: -0.227
6,GCAGGAACAAGCUCGUAAATT against FSD1L,inactive: 0.166
7,GGCUUUAUCUUGACCAUAATT against LRRTM4,inactive: 0
8,CCUUUGCCCUGUUCAAGGATT against CYP17A1,active: -1.39
9,GGAAAGGCUUUACCCGUAATT against ZNF227,inactive: 0.0194
10,CAGCACCACCAAUAUCCAATT against RNASE4,inactive: -0.0112
11,ACAACAUCGUCUUCCCAGATT against LCN12,inactive: 0.124
12,CAAACUUCCUGAAUCUGAUTT against POLD3,inactive: -0.161
13,CCAGCUAUCUAUAACCUUATT against ATP6V0C,inactive: -0.389
14,CGCUGAUCAUGCUACAAGATT against MAML3,inactive: -0.412
15,GAAUCAGUAUAGAACAAGATT against RIOK2,inactive: -0.16
16,CGACAUCCGCAUCCAGAAATT against SYN3,inactive: -0.729
17,CCACGAGAUUGAUAGUAUUTT against KCNAB2,inactive: 0
18,GGAUGAUCGUGACAAGUUUTT against ATP1B3,inactive: -0.225
19,ACCGGAGAAUGAAAAAGAATT against HOXC12,inactive: 0.788
20,GCACUUGUAAGAACUGGUATT against POSTN,inactive: -0.45
21,GCUAAGGACUAUUUAAAUUTT against NME5,inactive: 0.393
22,GCAUUAAGCGAGUCAAGGATT against TAF5L,inactive: 0.409
23,GCACUUGUAUGAUGAGGUATT against NPHS1,inactive: -0.0505

row,Sequence,median seed-adjusted z-score
1,GGAGUAUGCUAGGCUAUGATT against WNK2,inactive: 0.212
2,GCAGCACGCUCUUCACCAUTT against SLC5A2,inactive: -0.0782
3,GAGCUAUAAAUAAACUGAUTT against PET112L,inactive: 0.235
4,CACCCAGUCUGUCACCAAATT against ARHGAP17,inactive: -0.336
5,GGCUACUGCUCAGUUCUUATT against ZBTB24,inactive: -0.156
6,ACAUGGAAGAAGAUAAUAATT against ASCC3,inactive: -0.192
7,CAGUCAGGUUCAUAAGUAATT against IYD,inactive: -0.572
8,GAACUAAACUUGUUAAUGATT against TRIM36,inactive: -0.262
9,UGACCAUAAGGAAACGAUATT against ANXA10,inactive: 0.0445
10,CAUUCUAUGUUGGAUAUUATT against PLDN,inactive: -0.164
11,UCAUCAACUGCUUCACUUUTT against ADORA2A,inactive: 0
12,GCCUCACCGUCUAUGUACATT against CD200,inactive: -0.0135
13,GACUGGAGAUAUCAAGGAATT against SQLE,active: -1.14
14,GCCGUUUGACCAUACAUUATT against SNTB1,inactive: 0.488
15,CCAUCGUGAUAUAUUUCGATT against PDE11A,inactive: 0
16,AGCGGUUCGUUAUCCCAUUTT against POLE3,inactive: -0.0612
17,GGAUCUCAUGAAAAAGUUUTT against CBR3,inactive: 0.057
18,CCUUCAACAUGAACUUUAUTT against HS6ST2,inactive: 0
19,GCGUCGUGGUCAUGAACAATT against PIP5K1C,inactive: -0.13
20,GGAAGCCGUUAGAAGGUUATT against TAF11,inactive: -0.848
21,GGCUCAGUAUGGACCUCAATT against ARID1B,inactive: 0.108
22,UCAACACCGUCUACAUUUATT against SVOPL,inactive: 0.439
23,AGACAUUAAUAUUGCGUGUTT against ACBD7,inactive: -0.542

# Two successive entries from above:
row,Sequence,median seed-adjusted z-score
19,ACCGGAGAAUGAAAAAGAATT against HOXC12,inactive: 0.788
20,GCACUUGUAAGAACUGGUATT against POSTN,inactive: -0.45

# Reprinted at random: 2 entries already listed
row,Sequence,median seed-adjusted z-score
3,GAGCUAUAAAUAAACUGAUTT against PET112L,inactive: 0.235
2,GCAGCACGCUCUUCACCAUTT against SLC5A2,inactive: -0.0782

# Following part:

row,Sequence,median seed-adjusted z-score
1,GGAGACUCAUUGCAAGAUUTT against CNKSR2,inactive: -0.0536
2,UACCUGAGCUUACAAAUUUTT against ESRRB,inactive: -0.611
3,AGAUAAUCACCGCACCGUUTT against FUT6,inactive: 0.282
4,GGGCAGUCUUUGCACAUCATT against IKBKB,inactive: 0.0896
5,CGAGGGAUCCUAACUCUCATT against ACTG2,inactive: 0.157
6,GACUAGCUGCUGAUAAGAATT against CKAP5,active: -1.87
7,GUGCAUCUCUGGUAACUGUTT against TRPV3,inactive: -0.228
8,GGAAUUCGACUGGAACAUUTT against NUF2,inactive: -0.658
9,CCAUGACAAUCAACGAGGATT against AMY2A,inactive: -0.266
10,GUCAGAGACAGAUUUGAUATT against RHCE,inactive: 0.488
11,GGUUUUGGAAGUAAAGUUATT against PARK7,inactive: -0.357
12,CACUGAUUAUGGGAUAUUUTT against LYZ,inactive: -0.0538
13,GAGCAAAGCUGAACGUGAATT against UST,inactive: 0.265
14,GAACCAACUCGGCCUCUAUTT against HYAL3,inactive: 0
15,ACAUCGUCCUCAUGACUAATT against NT5C1A,inactive: -0.448
16,GGUAUUUGAUAGCAGUUGATT against ADAL,inactive: 0.145
17,GGAUGAUAGACCUACUGGATT against INO80,inactive: 0.0546
18,GAUCCCUGCUGUCAUCUUUTT against KCNK10,inactive: 0.239
19,GAUUAUUGAGCAUAAGAUUTT against ZNF277,inactive: -0.0374
20,AGAAGAACCCGAACAAAGATT against EN2,inactive: 0.319
21,UGAGCGAGUUGGUCAAGAUTT against MAP1LC3A,inactive: 0
22,AAAUCGAUCAGAUCAACAATT against CDC2L1,active: -1.14
23,GAACUUGACCAGUUAGACUTT against GTF3C3,inactive: 0.21
